In the supplement of paper PMC10849652:
This is one part of the list.

By UniProt entry, the sequences of proteins in these tests, tags left out. Where a name states a change or a piece, a line headed by the entry shows the natural chain unless it says otherwise.
UniProt Q08431: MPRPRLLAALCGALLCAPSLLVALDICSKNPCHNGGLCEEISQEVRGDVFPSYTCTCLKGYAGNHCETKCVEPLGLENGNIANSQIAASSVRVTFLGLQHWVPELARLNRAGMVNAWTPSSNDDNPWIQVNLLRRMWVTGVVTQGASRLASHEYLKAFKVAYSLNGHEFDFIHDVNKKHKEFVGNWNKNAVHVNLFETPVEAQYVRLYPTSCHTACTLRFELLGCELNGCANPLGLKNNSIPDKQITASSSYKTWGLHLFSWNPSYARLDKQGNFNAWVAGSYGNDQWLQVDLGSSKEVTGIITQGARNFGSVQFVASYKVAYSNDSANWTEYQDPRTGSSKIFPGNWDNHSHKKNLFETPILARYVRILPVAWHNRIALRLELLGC
UniProt Q96PE7: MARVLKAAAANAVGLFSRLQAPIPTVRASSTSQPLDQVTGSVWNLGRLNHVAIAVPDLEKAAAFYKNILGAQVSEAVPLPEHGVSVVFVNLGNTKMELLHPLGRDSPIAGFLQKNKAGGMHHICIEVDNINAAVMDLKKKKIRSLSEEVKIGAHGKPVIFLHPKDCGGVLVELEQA
UniProt Q14566: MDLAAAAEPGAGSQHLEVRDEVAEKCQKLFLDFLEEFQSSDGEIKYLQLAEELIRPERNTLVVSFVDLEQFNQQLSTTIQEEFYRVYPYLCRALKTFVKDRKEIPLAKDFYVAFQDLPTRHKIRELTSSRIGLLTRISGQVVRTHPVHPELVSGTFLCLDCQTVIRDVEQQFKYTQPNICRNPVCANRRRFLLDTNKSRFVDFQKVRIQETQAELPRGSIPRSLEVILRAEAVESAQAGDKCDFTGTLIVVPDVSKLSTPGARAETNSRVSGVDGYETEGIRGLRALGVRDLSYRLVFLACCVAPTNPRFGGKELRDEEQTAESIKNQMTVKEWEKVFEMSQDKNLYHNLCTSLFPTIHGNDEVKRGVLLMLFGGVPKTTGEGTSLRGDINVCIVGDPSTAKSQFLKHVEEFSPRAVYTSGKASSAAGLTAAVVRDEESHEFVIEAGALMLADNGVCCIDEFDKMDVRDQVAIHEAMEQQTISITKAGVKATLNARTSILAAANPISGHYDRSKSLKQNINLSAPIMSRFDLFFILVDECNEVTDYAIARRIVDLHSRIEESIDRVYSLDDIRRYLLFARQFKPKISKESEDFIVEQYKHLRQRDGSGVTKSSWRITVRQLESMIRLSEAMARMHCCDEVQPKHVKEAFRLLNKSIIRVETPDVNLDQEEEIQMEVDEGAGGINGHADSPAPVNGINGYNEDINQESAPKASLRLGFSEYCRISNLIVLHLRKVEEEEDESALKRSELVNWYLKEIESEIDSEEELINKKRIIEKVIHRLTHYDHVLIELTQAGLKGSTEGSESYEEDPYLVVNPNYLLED
UniProt Q9GZY8: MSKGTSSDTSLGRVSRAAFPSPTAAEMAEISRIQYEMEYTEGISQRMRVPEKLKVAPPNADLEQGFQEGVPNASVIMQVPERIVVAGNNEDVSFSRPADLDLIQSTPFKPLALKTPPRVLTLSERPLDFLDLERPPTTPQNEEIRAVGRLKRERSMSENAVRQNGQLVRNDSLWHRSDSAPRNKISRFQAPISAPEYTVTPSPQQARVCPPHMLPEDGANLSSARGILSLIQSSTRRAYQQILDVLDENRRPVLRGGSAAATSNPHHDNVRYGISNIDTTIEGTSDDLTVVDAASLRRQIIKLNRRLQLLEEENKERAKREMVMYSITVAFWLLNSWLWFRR
UniProt Q9Y316: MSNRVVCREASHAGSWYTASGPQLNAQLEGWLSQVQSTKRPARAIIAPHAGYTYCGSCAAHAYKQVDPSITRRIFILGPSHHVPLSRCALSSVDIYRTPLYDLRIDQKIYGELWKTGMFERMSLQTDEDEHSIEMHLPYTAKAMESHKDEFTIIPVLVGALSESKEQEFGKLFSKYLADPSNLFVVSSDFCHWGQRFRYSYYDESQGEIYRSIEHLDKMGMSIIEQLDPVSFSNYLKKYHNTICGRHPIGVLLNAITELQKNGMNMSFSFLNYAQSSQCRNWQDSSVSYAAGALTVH
UniProt Q96N66: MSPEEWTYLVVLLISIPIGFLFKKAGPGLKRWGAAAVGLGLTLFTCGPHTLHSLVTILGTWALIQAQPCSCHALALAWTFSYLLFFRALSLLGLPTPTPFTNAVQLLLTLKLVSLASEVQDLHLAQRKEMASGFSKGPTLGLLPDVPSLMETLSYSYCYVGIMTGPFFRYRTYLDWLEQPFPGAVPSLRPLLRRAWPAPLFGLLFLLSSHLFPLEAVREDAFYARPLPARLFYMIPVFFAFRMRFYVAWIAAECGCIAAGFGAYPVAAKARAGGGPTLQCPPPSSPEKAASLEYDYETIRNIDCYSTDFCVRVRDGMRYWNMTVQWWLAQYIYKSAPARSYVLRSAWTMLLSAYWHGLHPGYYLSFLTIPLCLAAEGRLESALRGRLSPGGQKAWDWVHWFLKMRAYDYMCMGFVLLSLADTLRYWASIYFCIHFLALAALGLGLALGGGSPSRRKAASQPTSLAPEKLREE
UniProt O14770: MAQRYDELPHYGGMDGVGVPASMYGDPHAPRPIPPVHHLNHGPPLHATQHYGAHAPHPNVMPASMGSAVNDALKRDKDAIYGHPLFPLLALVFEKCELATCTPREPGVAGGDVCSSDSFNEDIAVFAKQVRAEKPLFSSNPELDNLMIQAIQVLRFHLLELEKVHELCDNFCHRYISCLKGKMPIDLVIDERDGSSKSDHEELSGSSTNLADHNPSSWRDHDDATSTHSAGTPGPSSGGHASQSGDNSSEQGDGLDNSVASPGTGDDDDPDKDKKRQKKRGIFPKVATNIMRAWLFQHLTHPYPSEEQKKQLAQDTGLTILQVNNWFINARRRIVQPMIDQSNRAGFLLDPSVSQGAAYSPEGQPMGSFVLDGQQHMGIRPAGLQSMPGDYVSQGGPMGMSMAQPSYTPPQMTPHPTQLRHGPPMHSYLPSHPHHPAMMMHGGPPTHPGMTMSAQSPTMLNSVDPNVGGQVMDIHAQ
UniProt Q8IWA4: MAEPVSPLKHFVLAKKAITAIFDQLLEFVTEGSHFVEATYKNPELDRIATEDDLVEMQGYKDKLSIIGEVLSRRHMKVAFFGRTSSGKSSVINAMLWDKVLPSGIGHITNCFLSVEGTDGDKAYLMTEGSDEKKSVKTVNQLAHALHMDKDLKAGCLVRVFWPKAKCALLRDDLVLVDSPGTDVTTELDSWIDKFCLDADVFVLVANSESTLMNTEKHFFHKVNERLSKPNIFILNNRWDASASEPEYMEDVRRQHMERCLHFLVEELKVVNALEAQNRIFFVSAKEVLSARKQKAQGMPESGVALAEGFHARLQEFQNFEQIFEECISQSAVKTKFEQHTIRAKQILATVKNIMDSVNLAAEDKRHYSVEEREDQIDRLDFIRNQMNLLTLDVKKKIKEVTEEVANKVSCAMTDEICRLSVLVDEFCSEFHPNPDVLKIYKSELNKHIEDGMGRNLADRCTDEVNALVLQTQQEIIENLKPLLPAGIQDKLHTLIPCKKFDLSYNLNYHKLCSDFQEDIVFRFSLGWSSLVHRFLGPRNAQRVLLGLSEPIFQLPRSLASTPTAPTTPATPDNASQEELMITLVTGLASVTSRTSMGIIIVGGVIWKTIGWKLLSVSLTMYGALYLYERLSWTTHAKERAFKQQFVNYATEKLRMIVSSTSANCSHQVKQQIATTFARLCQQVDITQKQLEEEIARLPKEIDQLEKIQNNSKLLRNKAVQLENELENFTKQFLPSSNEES
UniProt P50579: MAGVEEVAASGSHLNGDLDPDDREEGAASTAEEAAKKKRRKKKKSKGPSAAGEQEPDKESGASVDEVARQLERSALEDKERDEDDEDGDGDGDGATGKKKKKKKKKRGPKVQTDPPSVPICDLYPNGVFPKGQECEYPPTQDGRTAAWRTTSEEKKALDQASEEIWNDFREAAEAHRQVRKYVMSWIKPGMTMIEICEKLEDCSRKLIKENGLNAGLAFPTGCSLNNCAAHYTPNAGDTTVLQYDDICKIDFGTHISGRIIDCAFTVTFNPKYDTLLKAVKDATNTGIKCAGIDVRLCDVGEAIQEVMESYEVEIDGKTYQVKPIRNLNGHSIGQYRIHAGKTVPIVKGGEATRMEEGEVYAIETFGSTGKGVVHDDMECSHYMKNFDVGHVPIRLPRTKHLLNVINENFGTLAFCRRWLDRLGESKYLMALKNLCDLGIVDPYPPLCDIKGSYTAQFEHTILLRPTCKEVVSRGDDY
UniProt Q9ULC4: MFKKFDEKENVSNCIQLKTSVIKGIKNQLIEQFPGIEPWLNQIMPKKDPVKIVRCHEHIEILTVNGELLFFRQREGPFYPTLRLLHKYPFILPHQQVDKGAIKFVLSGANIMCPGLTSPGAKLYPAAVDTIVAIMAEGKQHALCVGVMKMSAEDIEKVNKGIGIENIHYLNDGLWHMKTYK
UniProt Q14676: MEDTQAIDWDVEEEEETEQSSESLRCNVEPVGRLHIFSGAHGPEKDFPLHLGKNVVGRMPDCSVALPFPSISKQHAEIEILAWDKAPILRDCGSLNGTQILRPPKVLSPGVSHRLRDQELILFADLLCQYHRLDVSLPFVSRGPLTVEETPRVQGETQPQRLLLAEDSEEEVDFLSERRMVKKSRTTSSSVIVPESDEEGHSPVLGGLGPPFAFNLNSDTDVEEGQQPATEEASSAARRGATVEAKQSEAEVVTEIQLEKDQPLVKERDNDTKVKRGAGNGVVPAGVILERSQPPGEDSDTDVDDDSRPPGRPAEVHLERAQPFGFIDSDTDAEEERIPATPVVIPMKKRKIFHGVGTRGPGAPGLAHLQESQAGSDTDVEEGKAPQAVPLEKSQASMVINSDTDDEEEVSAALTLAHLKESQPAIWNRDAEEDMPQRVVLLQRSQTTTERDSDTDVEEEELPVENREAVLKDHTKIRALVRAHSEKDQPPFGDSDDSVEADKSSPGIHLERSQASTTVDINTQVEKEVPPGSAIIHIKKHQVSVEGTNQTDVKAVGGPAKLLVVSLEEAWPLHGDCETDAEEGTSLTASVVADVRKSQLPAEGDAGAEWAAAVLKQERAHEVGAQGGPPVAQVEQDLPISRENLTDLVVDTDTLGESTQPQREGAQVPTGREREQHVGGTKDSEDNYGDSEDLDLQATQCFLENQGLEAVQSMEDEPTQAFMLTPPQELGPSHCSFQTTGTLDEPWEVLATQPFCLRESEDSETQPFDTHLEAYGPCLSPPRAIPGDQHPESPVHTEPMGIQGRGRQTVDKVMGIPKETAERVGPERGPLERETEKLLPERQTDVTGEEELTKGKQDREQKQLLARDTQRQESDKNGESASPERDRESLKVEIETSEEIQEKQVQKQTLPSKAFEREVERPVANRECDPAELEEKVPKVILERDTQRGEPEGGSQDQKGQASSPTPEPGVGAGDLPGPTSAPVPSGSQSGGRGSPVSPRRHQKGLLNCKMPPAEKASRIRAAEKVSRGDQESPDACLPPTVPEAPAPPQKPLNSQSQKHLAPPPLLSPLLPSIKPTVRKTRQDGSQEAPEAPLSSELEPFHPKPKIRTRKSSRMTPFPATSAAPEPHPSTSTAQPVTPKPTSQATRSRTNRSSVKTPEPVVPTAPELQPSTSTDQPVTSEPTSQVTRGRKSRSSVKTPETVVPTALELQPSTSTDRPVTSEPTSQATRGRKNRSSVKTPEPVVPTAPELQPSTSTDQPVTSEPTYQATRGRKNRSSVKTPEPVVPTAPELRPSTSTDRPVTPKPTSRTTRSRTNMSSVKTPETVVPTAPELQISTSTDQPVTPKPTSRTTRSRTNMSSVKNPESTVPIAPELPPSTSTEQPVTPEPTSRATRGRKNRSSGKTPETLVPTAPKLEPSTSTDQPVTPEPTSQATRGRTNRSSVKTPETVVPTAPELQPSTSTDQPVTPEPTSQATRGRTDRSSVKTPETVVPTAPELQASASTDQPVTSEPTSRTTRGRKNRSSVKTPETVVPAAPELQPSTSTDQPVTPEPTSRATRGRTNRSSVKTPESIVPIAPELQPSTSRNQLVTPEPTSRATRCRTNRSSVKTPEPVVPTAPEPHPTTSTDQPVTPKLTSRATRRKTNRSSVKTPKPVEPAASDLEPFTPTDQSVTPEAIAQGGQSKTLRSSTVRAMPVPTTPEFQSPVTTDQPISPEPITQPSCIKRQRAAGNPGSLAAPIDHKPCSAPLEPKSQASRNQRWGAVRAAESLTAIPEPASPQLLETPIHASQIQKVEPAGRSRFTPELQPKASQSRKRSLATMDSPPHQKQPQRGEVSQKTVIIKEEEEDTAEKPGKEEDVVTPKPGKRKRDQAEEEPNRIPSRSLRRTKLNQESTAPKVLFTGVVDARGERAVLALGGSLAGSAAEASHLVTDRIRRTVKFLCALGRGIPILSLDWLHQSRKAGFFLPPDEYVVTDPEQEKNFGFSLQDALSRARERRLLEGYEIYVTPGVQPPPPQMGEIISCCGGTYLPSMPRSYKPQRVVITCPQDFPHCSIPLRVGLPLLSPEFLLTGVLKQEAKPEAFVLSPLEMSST

Tests used:
Experiment in all cases: log2 fold change, soluble protein after heating vs DMSO (PISA); higher = thermal stabilisation; K562 lysate, 10 uM; active = over 0.2 and 3.5 SD of the protein, either way, in both replicates (recomputed)
[1] = compound: C=CC(=O)N1CCC[C@@H](n2nc(-c3ccc(Oc4ccccc4)cc3)c3c(N)ncnc32)C1 [ibrutinib]
Summary of the method: (§1)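 To prepare the extract, K562 pellets were dounce-homogenised in PBS pH 7.4 with 1 mM MgCl2, giving crude material at 1 mg/mL protein. This was treated with 10 μM compound for 30 min, then heated in aliquots for 3 min over 48°C-58°C before pooling and addition of NP-40 to 0.5% at 4°C. Centrifugation at 21,000xg for 90 min left soluble protein in the supernatant, which TMTpro 16plex LC-MS/MS quantified with equalised channel sums. Results are log-two fold changes in thermal stability compared with solvent controls, from duplicates.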

[2] = compound: CC(=O)c1cnc2ccc(-c3cc(Cl)c(O)c(Cl)c3)nc2c1N[C@H]1CC[C@H](CN(C)C)CC1
Summary of the method: as §1

[3] = compound: CC(C)(C)Cn1c(N)nc2ccc(-c3[nH]c(C(C)(C)C)nc3-c3ccc(F)cc3)nc21 [ralimetinib]
Summary of the method: as §1

[4] = compound: CC(C)(O)CC(=O)NCCn1ccc2ncnc(Nc3ccc(Oc4cccc(C(F)(F)F)c4)c(Cl)c3)c21
Summary of the method: as §1

[5] = compound: CC(C)C1=C2N=C(C=C(N2N=C1)NCC3=CC=CC=C3)NCCCCCCN
Summary of the method: as §1

[6] = compound: CC1=C(C(CC(=O)N1)C2=CC=C(C=C2)C(F)(F)F)C(=O)NC3=C(C=C4C(=C3)C=NN4)F
Summary of the method: as §1

[7] = compound: CC1=C(C2=C(C=C1)C(=O)C3=CC=CC=C3N2CCCN)C
Summary of the method: as §1

[8] = compound: CC1=C(C=C(C=C1)NC(=O)C2=CC(=CC=C2)C(C)(C)C#N)NC3=CC4=C(C=C3)N=CN(C4=O)C
Summary of the method: as §1

[9] = compound: CC1=C(C=C(C=C1)NC(=O)C2=CC(=CC=C2)N(C)C)NC(=O)C3=CC=C(C=C3)O
Summary of the method: as §1

[10] = compound: CC1=CC=C(C=C1)SC2=C3C=C(SC3=CN=C2)C(=O)N
Summary of the method: as §1

[11] = compound: CCCS(=O)(=O)Nc1ccc(F)c(C(=O)c2c[nH]c3ncc(-c4ccc(Cl)cc4)cc23)c1F [vemurafenib]
Summary of the method: as §1

[12] = compound: CCCS(=O)(=O)Nc1ccc(F)c(C(=O)c2c[nH]c3ncc(Cl)cc23)c1F
Summary of the method: as §1

[13] = compound: CCN(CCCOc1ccc2c(Nc3cc(CC(=O)Nc4cccc(F)c4)[nH]n3)ncnc2c1)CCOP(=O)(O)O [barasertib]
Summary of the method: as §1

[14] = compound: CC[C@@H]1C(=O)N(C)c2cnc(Nc3ccc(C(=O)NC4CCN(C)CC4)cc3OC)nc2N1C1CCCC1
Summary of the method: as §1

[15] = compound: CC[C@@H]1C(=O)N(C)c2cnc(Nc3ccc(C(=O)N[C@H]4CC[C@H](N5CCN(CC6CC6)CC5)CC4)cc3OC)nc2N1C(C)C [volasertib]
Summary of the method: as §1

[16] = compound: CCn1c(C(=O)N(C2CC2)C2CC2)cc2c3c(ncn3C)c(Nc3cc(C)n(C)n3)nc21
Summary of the method: as §1

[17] = compound: CCn1cc(-c2ccnc3[nH]c(-c4cccc(CN(C)C)c4)cc23)c(-c2ccc(NC(=O)N(C)C)cc2)n1
Summary of the method: as §1

[18] = compound: CN1CCC(CNc2ccc3ncc(-c4cccc(OC(F)(F)F)c4)n3n2)CC1
Summary of the method: as §1

[19] = compound: CN1CCN(CCOc2cc(OC3CCOCC3)c3c(Nc4c(Cl)ccc5c4OCO5)ncnc3c2)CC1 [saracatinib]
Summary of the method: as §1

[20] = compound: CN1CCN(c2nc(C3=C(c4c[nH]c5ccccc45)C(=O)NC3=O)c3ccccc3n2)CC1 [sotrastaurin]
Summary of the method: as §1

Target	log2 fold change [1]	log2 fold change [2]	log2 fold change [3]	log2 fold change [4]	log2 fold change [5]	log2 fold change [6]	log2 fold change [7]	log2 fold change [8]	log2 fold change [9]	log2 fold change [10]	log2 fold change [11]	log2 fold change [12]	log2 fold change [13]	log2 fold change [14]	log2 fold change [15]	log2 fold change [16]	log2 fold change [17]	log2 fold change [18]	log2 fold change [19]	log2 fold change [20]
MFGE8 (UniProt Q08431)	inactive: -0.003	inactive: -0.068	inactive: 0.021	inactive: 0.025	inactive: 0.001	inactive: 0.028	inactive: -0.044	inactive: 0.03	inactive: -0.014	inactive: -0.078	inactive: -0.05	inactive: -0.023	inactive: -0.004	inactive: 0.087	inactive: -0.061	inactive: -0.02	inactive: -0.147	inactive: 0.148	inactive: -0.028	inactive: 0.03
MCEE (UniProt Q96PE7)	inactive: 0.051	inactive: -0.014	inactive: 0.062	inactive: 0.041	inactive: -0.08	inactive: -0.039	inactive: 0.021	inactive: -0.034	inactive: 0	inactive: -0.051	inactive: -0.003	inactive: 0.08	inactive: 0.028	inactive: 0.06	inactive: -0.032	inactive: 0.1	inactive: -0.062	inactive: -0.027	inactive: -0.007	inactive: 0.004
MCM6 (UniProt Q14566)	inactive: 0.004	inactive: -0.004	inactive: 0.021	inactive: -0.003	inactive: -0.022	inactive: -0.013	inactive: -0.002	inactive: -0.067	inactive: 0.014	inactive: 0.005	inactive: -0.054	inactive: 0.011	inactive: 0.001	inactive: -0.101	inactive: -0.054	inactive: 0.018	inactive: -0.011	inactive: -0.022	inactive: 0.022	inactive: 0.016
METAP1 (UniProt P53582)	inactive: 0.119	inactive: -0.009	inactive: -0.011	inactive: 0.001	inactive: 0.024	inactive: -0.006	inactive: 0.009	inactive: 0.047	inactive: -0.039	inactive: -0.005	inactive: -0.034	inactive: 0	inactive: 0.004	inactive: -0.008	inactive: -0.028	inactive: -0.001	inactive: -0.27	inactive: 0.095	inactive: -0.044	inactive: -0.03
MFF isoform 2 (UniProt Q9GZY8)	inactive: 0.007	inactive: -0.044	inactive: -0.03	inactive: -0.033	inactive: -0.052	inactive: 0	inactive: 0.004	inactive: 0.032	inactive: 0.022	inactive: -0.024	inactive: 0.019	inactive: 0.027	inactive: 0.027	inactive: 0.032	inactive: -0.014	inactive: 0.035	active: -0.234	inactive: 0.036	inactive: 0.011	inactive: -0.044
MEMO1 (UniProt Q9Y316)	inactive: -0.007	inactive: 0.013	inactive: -0.016	inactive: -0.031	inactive: -0.032	inactive: -0.003	inactive: 0.037	inactive: 0.012	inactive: -0.011	inactive: 0.038	inactive: 0.014	inactive: -0.004	inactive: -0.02	inactive: 0.014	inactive: -0.01	inactive: 0.05	inactive: 0.003	inactive: -0.003	inactive: -0.061	inactive: -0.017
MBOAT7 (UniProt Q96N66)	inactive: -0.019	inactive: -0.002	inactive: 0.002	inactive: -0.007	inactive: 0.018	inactive: 0.029	inactive: -0.008	inactive: 0.004	inactive: -0.009	inactive: -0.014	inactive: -0.035	inactive: 0	inactive: 0.037	inactive: 0.022	inactive: 0.155	inactive: 0.006	inactive: -0.096	inactive: 0.03	inactive: 0.028	inactive: -0.002
MEIS2 (UniProt O14770)	inactive: -0.024	inactive: 0.011	inactive: 0.012	inactive: 0.01	inactive: 0.04	inactive: 0.025	inactive: 0.019	inactive: 0.039	inactive: 0.033	inactive: -0.036	inactive: 0.049	inactive: 0.027	inactive: 0.122	inactive: 0.103	inactive: -0.006	inactive: 0.013	inactive: -0.009	inactive: 0.012	inactive: 0.158	inactive: 0.044
MED12 isoform 2 (UniProt Q93074)	inactive: 0.004	inactive: -0.019	inactive: 0.022	inactive: -0.009	inactive: -0.005	inactive: 0.009	inactive: 0.003	inactive: -0.005	inactive: 0.037	inactive: 0.02	inactive: -0.075	inactive: 0.005	inactive: 0.057	inactive: -0.012	inactive: -0.065	inactive: 0.037	inactive: 0.002	inactive: -0.066	inactive: 0.026	inactive: 0.022
MBLAC2 (UniProt Q68D91)	inactive: 0.05	inactive: -0.005	inactive: 0.069	inactive: 0.003	inactive: 0.035	inactive: 0.04	inactive: 0.037	inactive: -0.013	inactive: -0.044	inactive: -0.019	inactive: -0.069	inactive: -0.006	inactive: 0.013	inactive: -0.042	inactive: 0.002	inactive: 0.008	inactive: 0.036	inactive: 0.078	inactive: -0.042	inactive: 0.016
MCUR1 (UniProt Q96AQ8)	inactive: 0.005	inactive: -0.025	inactive: 0.041	inactive: -0.027	inactive: -0.047	inactive: 0.003	inactive: -0.021	inactive: 0.005	inactive: -0.023	inactive: -0.035	inactive: 0.019	inactive: 0.023	inactive: -0.014	inactive: -0.002	inactive: 0.041	inactive: -0.008	inactive: -0.022	inactive: -0.017	inactive: 0.024	inactive: -0.036
MBNL1 (UniProt C9JP00)	inactive: 0.016	inactive: -0.034	inactive: -0.013	inactive: 0.001	inactive: 0.028	inactive: 0.063	inactive: 0.033	inactive: -0.069	inactive: -0.055	inactive: 0.004	inactive: 0.018	inactive: 0.051	inactive: 0.04	inactive: 0.216	inactive: -0.008	inactive: -0.03	inactive: -0.04	inactive: 0.032	inactive: 0.027	inactive: -0.029
MFN1 (UniProt Q8IWA4)	inactive: 0.128	inactive: -0.062	inactive: -0.003	inactive: -0.144	inactive: 0	inactive: 0.113	inactive: 0.009	inactive: 0.077	inactive: -0.012	inactive: -0.024	inactive: -0.05	inactive: 0.026	inactive: 0.069	inactive: -0.059	inactive: 0.011	inactive: 0.045	inactive: -0.154	inactive: -0.273	inactive: 0.007	inactive: 0.024
METAP2 (UniProt P50579)	inactive: 0.025	inactive: -0.011	inactive: 0.006	inactive: -0.029	inactive: 0.015	inactive: -0.025	inactive: -0.026	inactive: 0.004	inactive: -0.018	inactive: -0.022	inactive: -0.01	inactive: 0.032	inactive: -0.026	inactive: 0.013	inactive: 0.01	inactive: -0.044	inactive: 0.023	inactive: 0.082	inactive: 0.034	inactive: -0.008
MCTS1 isoform 3 (UniProt Q9ULC4)	inactive: 0.023	inactive: -0.009	inactive: -0.038	inactive: 0.018	inactive: 0.043	inactive: -0.022	inactive: 0.015	inactive: 0	inactive: -0.033	inactive: 0.005	inactive: 0.022	inactive: 0.014	inactive: -0.064	inactive: -0.006	inactive: 0.009	inactive: -0.014	inactive: 0.209	inactive: -0.001	inactive: -0.01	inactive: -0.012
MDC1 (UniProt Q14676)	inactive: 0.036	inactive: -0.007	inactive: 0.024	inactive: -0.03	inactive: 0.005	inactive: 0.002	inactive: 0.024	inactive: 0.013	inactive: -0.033	inactive: 0.003	inactive: 0.016	inactive: 0.034	inactive: -0.002	inactive: 0.02	inactive: -0.023	inactive: -0.052	inactive: -0.011	inactive: 0.013	inactive: -0.001	inactive: 0.043

An excerpt from above, showing only log2 fold change [16]:

| Target | log2 fold change [16] |
| --- | --- |
| MFF isoform 2 (UniProt Q9GZY8) | inactive: 0.035 |
| MBOAT7 (UniProt Q96N66) | inactive: 0.006 |
